PubChem BioAssay AID1259405 – NCATS – 2018

Aim: 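Silenced genes that increase secreted GFP made by CHO cells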 (primary screen)
Cell system: Chinese hamster CHO-K1 ovary cells with stable secreted eGFP expression
Reagents: single siRNA against mouse genes, 0.8 pmol siRNA per well (2 µl of 400 nM stock)
Duration: 3 days
Detection: 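Percent of the per-plate non-targeting control median for intracellular GFP per well by laser scanning cytometry and for cell viability by ATP luminescence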
Scale: GFP, % of control: higher = more GFP per well, higher productivity; viability (ATP), % of control: higher = more viable cells (more ATP)
Rule for the call: 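Called active when intracellular GFP, relative to negative control, is at or above 120%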
The whole screen tested about 50,000 reagents; this is a random part of them. About 4,000 of all reagents (8%) were called active. 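Mouse siRNA library applied to hamster cells; one well for each siRNA.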 Entries without a mark were called inactive. Reagents against one gene are numbered here. Reagent sequences are not shown.

The opening 3 entries, to show the layout:
GFP, % of control | viability (ATP), % of control | Gene | reagent
50.8 | 54.1 | Ovgp1 (GeneID 12659) | 1
70.1 | 76.9 | Ovgp1 (GeneID 12659) | 2
92.6 | 95.3 | Ovgp1 (GeneID 12659) | 3

Results, from the start:
GFP, % of control | viability (ATP), % of control | Gene | reagent
50.8 | 54.1 | Ovgp1 (GeneID 12659) | 1
70.1 | 76.9 | Ovgp1 (GeneID 12659) | 2
92.6 | 95.3 | Ovgp1 (GeneID 12659) | 3
80 | 102 | Slc46a3 (GeneID 71706) | 1
64.3 | 84 | Slc46a3 (GeneID 71706) | 2
66.5 | 78.8 | Slc46a3 (GeneID 71706) | 3
41.8 | 46.9 | Noct (GeneID 12457) | 1
129 (active) | 91.9 | Noct (GeneID 12457) | 2
117 | 111 | Noct (GeneID 12457) | 3
78 | 78.5 | Aebp1 (GeneID 11568) | 1
44.2 | 50.4 | Aebp1 (GeneID 11568) | 2
78.2 | 69.4 | Aebp1 (GeneID 11568) | 3
133 (active) | 97 | Or4f56 (GeneID 258396) | 1
118 | 61.8 | Or4f56 (GeneID 258396) | 2
65.7 | 57.2 | Or4f56 (GeneID 258396) | 3
113 | 88 | Sema4a (GeneID 20351) | 1
105 | 91.1 | Sema4a (GeneID 20351) | 2
93.1 | 83.1 | Sema4a (GeneID 20351) | 3
60.1 | 83.7 | Ak3 (GeneID 56248) | 1
51.1 | 55.9 | Wdr55 (GeneID 67936) | 1
48.6 | 65.9 | Wdr55 (GeneID 67936) | 2
73.3 | 72.4 | Wdr55 (GeneID 67936) | 3
120 (active) | 91.3 | Oas1d (GeneID 100535) | 1
66.1 | 87.8 | Oas1d (GeneID 100535) | 2
54.7 | 52.4 | Oas1d (GeneID 100535) | 3
75.7 | 96 | Ifnb1 (GeneID 15977) | 1
72.2 | 55.8 | Ifnb1 (GeneID 15977) | 2
92.9 | 79.9 | Vmn1r6 (GeneID 171193) | 1
81.8 | 65.8 | Vmn1r6 (GeneID 171193) | 2
90.3 | 109 | Vmn1r6 (GeneID 171193) | 3
46.1 | 64.3 | Hps3 (GeneID 12807) | 1
64.1 | 55.6 | Hps3 (GeneID 12807) | 2
60.5 | 77.3 | Hps3 (GeneID 12807) | 3
57.5 | 55.5 | Maff (GeneID 17133) | 1
63 | 82.1 | Maff (GeneID 17133) | 2
62.7 | 77.9 | Maff (GeneID 17133) | 3
76.5 | 72 | Ncbp2 (GeneID 68092) | 1
77.4 | 64.5 | Ncbp2 (GeneID 68092) | 2
64.4 | 57.1 | Ncbp2 (GeneID 68092) | 3
71.8 | 80.1 | Mtmr3 (GeneID 74302) | 1
68.7 | 87.3 | Mtmr3 (GeneID 74302) | 2
68.3 | 87.6 | Mtmr3 (GeneID 74302) | 3
101 | 87.4 | A630001O12Rik (GeneID 414091) | 1
40.7 | 51.5 | A630001O12Rik (GeneID 414091) | 2
79 | 87.2 | A630001O12Rik (GeneID 414091) | 3
66.9 | 85.4 | Fam204a (GeneID 76539) | 1
83.4 | 72 | Fam204a (GeneID 76539) | 2
78.5 | 75.5 | Fam204a (GeneID 76539) | 3
88.1 | 116 | Wdr93 (GeneID 626359) | 1
52.7 | 59.1 | Wdr93 (GeneID 626359) | 2
89.6 | 82.3 | Wdr93 (GeneID 626359) | 3
114 | 80.3 | Tspan8 (GeneID 216350) | 1
49.1 | 58.1 | Tspan8 (GeneID 216350) | 2
76 | 79.1 | Tspan8 (GeneID 216350) | 3
94.8 | 83.7 | Asb8 (GeneID 78541) | 1
91.6 | 71.3 | Asb8 (GeneID 78541) | 2
85.4 | 67.8 | Asb8 (GeneID 78541) | 3
